{"source": "patent US20230277630A1", "about": "“METHODS AND COMPOSITIONS FOR TREATING AMYOTROPHIC LATERAL SCLEROSIS” (Amylyx Pharmaceuticals, Inc., priority 2022, published 2023)", "assay": "Solubility assessment in HBSSg_7.4 and HBSSg_8.5", "settings": "at least two replicates, both matrices", "note": "Some of these results come from one statement about several compounds together."}
{"compound": "O=C(O)CCCc1ccccc1", "note": "[PB, sodium phenylbutyrate]", "values": [{"measurement": "measured concentration, % of the nominal concentration", "value": "greater than 80%"}]}
